Measurements taken from patent US20230039109A1 (Novartis, published 2023).
Where a chain is given by its changes, count along the chain named. No constants are given. Whether binding was seen depends on the method and setting. Some entries that bind do so weakly or less than the wild type.

B1: anti-CD73 antibody 350.C (antibody, V domains shown)
VH: QVQLQESGPGLVKPSETLSLTCTVSGGSIERYYWSWIRQPPGKGLEWIGYIYGRGSTNYNPSLKSRVTISVDTSKNQFSLKLSSVTAADTAVYYCARESQESPYNNWFDPWGQGTLVTVSS
VL: DIQMTQSPSSVSASVGDRVTITCRASQGISSWLAWYQQKPGKAPKLLIYAASSLQSGVPSRFSGSGSGTDFTLTISSLQPEDFATYYCQQGNSFPRTFGGGTKVEIK
B2: anti-CD73 antibody 358.C (antibody, V domains shown)
VH: B1 VH with E30S, R31G, Y32R, R54T
VL: B1 VL
B3: anti-CD73 antibody 356.C (antibody, V domains shown)
VH: B1 VH with R31G, Y32R, R54S, N58K
VL: B1 VL
B4: anti-CD73 antibody 373.C (antibody, V domains shown)
VH: EVQLLESGGGLVQPGGSLRLSCAASGFTFHRYAMSWVRQAPGKGLEWVSAISGSGMNTYYADSVKGRFTISRDNSKNTLYLQMNSLRAEDTAVYYCARGGLYGSGSYLSDFDLWGRGTLVTVSS
VL: EIVLTQSPATLSVSPGERATLSCRASQSVGSNLAWYQQKPGQAPRLLIYGASTRATGIPARFSGSGSGTEFTLTISSLQSEDFAVYYCQQHNAFPYTFGGGTKVEIK
B5: anti-CD73 antibody 377.C (antibody, V domains shown)
VH: B4 VH with H30K, R31S, M56S, N57Y
VL: B4 VL
B6: anti-CD73 antibody 374.C (antibody, V domains shown)
VH: B4 VH with H30S, R31Y, Y32N, A50S, S54T, M56G, N57S
VL: B4 VL
B7: anti-CD73 antibody 379.C (antibody, V domains shown)
VH: B4 VH with H30S, A50S, S54T, M56G, N57S
VL: B4 VL

What follows are binders tested against Cynomolgus CD73/NT5E Protein (His Tag) (cynomolgus monkey) (assay: ForteBio Octet BLI).

binding, binds:
B1
B2
B3
B4
B5
B6
B7
